This assay relates to P388 leukemia ip, CD2F1 mice, survival T/C. In words: NCI In Vivo Anticancer Drug Screen. Data for tumor model P388 Leukemia (intraperitoneal) in CD2F1 (CDF1) mice. The conditions noted are these: T/C endpoint: median survival time, higher T/C = longer survival.
[1] abbreviates: dose: 200.0 mg/kg/injection, schedule: Q01DX009 (ip), vehicle: saline.
[2] abbreviates: dose: 50.0 mg/kg/injection, schedule: Q01DX009 (ip), vehicle: saline with Tween-80.
The mark [3] stands for this setting: dose: 100.0 mg/kg/injection, schedule: Q01DX009 (ip), vehicle: saline with Tween-80.
The mark [4] stands for this setting: dose: 200.0 mg/kg/injection, schedule: Q01DX009 (ip), vehicle: saline with Tween-80.
Where [5] appears, read: dose: 50.0 mg/kg/injection, schedule: Q01DX005 (ip), vehicle: saline with Tween-80.
[6] abbreviates: dose: 100.0 mg/kg/injection, schedule: Q01DX005 (ip), vehicle: saline with Tween-80.
The mark [7] stands for this setting: dose: 200.0 mg/kg/injection, schedule: Q01DX005 (ip), vehicle: saline with Tween-80.
Where [8] appears, read: dose: 400.0 mg/kg/injection, schedule: Q04DX002 (ip), vehicle: saline with Tween-80.
Where [9] appears, read: dose: 60.0 mg/kg/injection, schedule: Q01DX005 (ip), vehicle: saline with Tween-80.
[10] abbreviates: dose: 50.0 mg/kg/injection, schedule: Q01DX009 (ip), vehicle: saline.
[11] abbreviates: dose: 200.0 mg/kg/injection, schedule: Q01DX009 (ip), vehicle: Klucel (hydroxypropylcellulose) (HPC).
Setting [12] is: dose: 100.0 mg/kg/injection, schedule: Q01DX009 (ip), vehicle: saline.

Each structure is given as a SMILES string. The list shows only some results of the screen, not a fair sample: it is rich in T/C values a quarter to a half above the control, in often repeated tests (any T/C) and in doses without a T/C. Further doses and runs are listed elsewhere. T/C: endpoint of the treated group in % of that of the vehicle group. Some entries give survivors of the animals treated and no T/C: the source files T/C as zero there, which appears to mark a toxic dose or a test without result, not a measured value. Some survivor counts are full or nearly so, which does not show that the dose was tolerated: the source hardly ever lists a survival T/C far under the control, and the zero likely stands for such cases as well. Survivors were counted at the toxicity check, usually on the fifth day, unless a day is given; later deaths do not show. Schedule codes are those of the source, taken here to give the interval after Q, in days (D) or hours (H), and the number of doses after X. Some structures stand for samples that the source files as different forms (salt, stereo form or complex); doses refer to the form tested. Some doses were run more than once; their values stand side by side, smallest first. Where survival is the endpoint, this PubChem deposit counts one and a half times the control or more as active, and values a quarter to a half above the control carry no call in these data; other NCI protocols may use other cut-offs. Some T/C values are followed by the survivors on the day toxicity was checked, most often the fifth; where none is given, no animal had died by that day.

The values that follow come from PubChem BioAssay AID330 (DTP/NCI, 2004).

Regarding `COc1ccc2nc(-n3[nH]c(C)c(-c4cc(C)nn4-c4ccccc4)c3=O)cc(C)c2c1`, for the setting “dose: 400.0 mg/kg/injection, schedule: Q01DX001 (ip), vehicle: saline with Tween-80”, the survivor count is on record as 6 of 6.

For `S=C(S)N1CCCC1`, the survivor count under setting [1] is 5 of 6.

As to `CCOc1ccc(N=c2ccn3ccccc3c2)cc1`, the survivor count is given as 0 of 6 under setting [2], 0 of 6 under setting [3] and 0 of 6 under setting [4].

For the compound `O=c1oc(-c2ccccc2Br)ns1`, the survivor count (dose: 400.0 mg/kg/injection, schedule: Q01DX009 (ip), vehicle: Klucel (hydroxypropylcellulose) (HPC)) was 3 of 6.

In the case of `C[C@H]1CC(=O)SC1=O`, the survivor count (dose: 100.0 mg/kg/injection, schedule: Q04DX002 (ip), vehicle: saline) is 5 of 6.

Take `CC1(C)CCC(C2=CC(=O)c3c(O)ccc(O)c3C2=O)O1` (stereo not given): the survivor count reads like this: under setting [5], 0 of 5; under setting [6], 0 of 5; under setting [7], 0 of 5.

`Cn1cccc1/C=N/N1CC(=O)N(c2cccc(Cl)c2)CC1=O`: under setting [7], the survivor count is 1 of 6.

Turning to `Brc1cccc(C(Nc2nncs2)Nc2nncs2)c1`, the T/C under setting [8] is 135 % of control.

With `CN(CC(N)=O)C(=O)N(CCCl)N=O`, the T/C under setting [9] is 140 % of control. For the same compound, where the note is “dose: 240.0 mg/kg/injection, schedule: Q01DX005 (ip), vehicle: saline with Tween-80”, the survivor count is given as 5 of 6.

As for `CSc1nc(SC)c2nc(SC)sc2n1`, the survivor count (dose: 200.0 mg/kg/injection, schedule: Q01DX001 (ip), vehicle: saline with Tween-80) is recorded as 6 of 6.

For `Clc1ccnc2ccc3ccccc3c12`, under setting [10], the survivor count is recorded as 1 of 6.

Regarding `O=C/C=C/n1ccccc1=S`, the survivor count is listed as 3 of 6 (dose: 40.0 mg/kg/injection, schedule: Q01DX001 (ip), vehicle: Klucel (hydroxypropylcellulose) (HPC)); 0 of 6 (dose: 80.0 mg/kg/injection, schedule: Q01DX001 (ip), vehicle: Klucel (hydroxypropylcellulose) (HPC)); 3 of 6 (dose: 160.0 mg/kg/injection, schedule: Q01DX001 (ip), vehicle: Klucel (hydroxypropylcellulose) (HPC)); 0 of 6 (dose: 320.0 mg/kg/injection, schedule: Q01DX001 (ip), vehicle: Klucel (hydroxypropylcellulose) (HPC)).

Take `COc1c(C=O)c2c(c(OC)c1OC)-c1ccc(OC)c(=O)cc1[C@@H](NC(C)=O)CC2`: the T/C was 149 % of control (dose: 0.39 mg/kg/injection, schedule: Q01DX009 (ip), vehicle: Klucel (hydroxypropylcellulose) (HPC)) and 149 % of control (dose: 0.78 mg/kg/injection, schedule: Q01DX009 (ip), vehicle: Klucel (hydroxypropylcellulose) (HPC)).

As to `Cc1ccc(O)c2c(NCCCCCCNc3cc(C)[n+](C)c4c(C)ccc(O)c34)cc(C)[n+](C)c12`, the survivor count is recorded as 3 of 5 under setting [5], 3 of 5 under setting [6] and 1 of 5 under setting [7].

Turning to `Cc1cccc2c1Oc1ccccc1C2NC(=O)c1ccccc1` (stereo not given), under setting [6], the survivor count was 5 of 5.

Regarding `O=C1C(Cl)=C(Nc2ccc3c(c2NC2=C(Cl)C(=O)c4ccccc4C2=O)C(=O)c2ccccc2C3=O)C(=O)c2ccccc21`, where the note is “dose: 200.0 mg/kg/injection, schedule: Q01DX005 (ip), vehicle: Klucel (hydroxypropylcellulose) (HPC)”, the survivor count is recorded as 3 of 5.

Turning to `Oc1ccc2ccccc2c1/C=N\Sc1ccccc1`, the survivor count under setting [4] was 4 of 6.

In the case of `CSCSCC(CO)NC(=O)C(Cl)Cl` (stereo not given), under “dose: 100.0 mg/kg/injection, schedule: Q01DX009 (ip), vehicle: water”, the survivor count is listed as 6 of 6.

Consider `CC1(C)CCC2=C(O1)c1ccccc1C(=O)C2=O`, for which, under “dose: 100.0 mg/kg/injection, schedule: Q01DX009 (ip), vehicle: Klucel (hydroxypropylcellulose) (HPC)”, the T/C is 129 % of control. Moreover, the survivor count under setting [11] is given as 1 of 6.

As for `CCOC(=O)NN`, the survivor count is 0 of 6 and 1 of 6 under setting [10]; 0 of 6 under setting [12]; 0 of 6 under setting [1]; 0 of 6 (dose: 400.0 mg/kg/injection, schedule: Q01DX009 (ip), vehicle: saline).

For the compound `CC1=C(Br)C(c2ccccc2)=Nc2ccccc2N1`, the survivor count is given as 6 of 6 under setting [2] and 2 of 6 under setting [1].

With `CCCNCCNc1ccc(NCCNCCC)c2c1C(=O)c1ccccc1C2=O`, the T/C (dose: 50.0 mg/kg/injection, schedule: Q01DX009 (ip), vehicle: distilled water + Tween-80) was 125 % of control. Further, the survivor count was 1 of 8 (dose: 64.0 mg/kg/injection, schedule: Q01DX009 (ip), vehicle: acid diluted with saline) and 0 of 6 (dose: 200.0 mg/kg/injection, schedule: Q01DX009 (ip), vehicle: distilled water + Tween-80).

Regarding `COc1ccc([P+](CCN2C(=O)c3ccccc3C2=O)(c2ccc(OC)cc2)c2ccc(OC)cc2)cc1`, the T/C runs as follows: (dose: 4.0 mg/kg/injection, schedule: Q01DX009 (ip), vehicle: water) 125 % of control; (dose: 6.0 mg/kg/injection, schedule: Q01DX009 (ip), vehicle: water) 134 % of control; (dose: 6.25 mg/kg/injection, schedule: Q01DX009 (ip), vehicle: water) 129 % of control; (dose: 9.0 mg/kg/injection, schedule: Q01DX009 (ip), vehicle: water) 130 % of control [5 of 6 alive]. The survivor count (dose: 25.0 mg/kg/injection, schedule: Q01DX009 (ip), vehicle: water) was 2 of 6.

Turning to `COc1ccc(OC)c2c(Cl)c(C)cnc12`, the survivor count is, setting by setting: (dose: 100.0 mg/kg/injection, schedule: Q01DX001 (ip), vehicle: Klucel (hydroxypropylcellulose) (HPC)) 0 of 4; (dose: 200.0 mg/kg/injection, schedule: Q01DX001 (ip), vehicle: Klucel (hydroxypropylcellulose) (HPC)) 0 of 5; (dose: 400.0 mg/kg/injection, schedule: Q01DX001 (ip), vehicle: Klucel (hydroxypropylcellulose) (HPC)) 0 of 5.

Take `CCC1=CC(C(O)CC(C)C)C(C)(Cc2ccc(CC)cn2)NC1c1ccccc1` (stereo not given): the survivor count is recorded as 0 of 6 (dose: 200.0 mg/kg/injection, schedule: Q04DX002 (ip), vehicle: saline with Tween-80) and 0 of 6 under setting [8].

For `O=C1CSC(=S)N1c1cccc(Cl)c1`, under setting [11], the T/C was 130 % of control.

`CCOC(=O)Nc1cc(OC)cc2ccc(C)nc12`: the survivor count (dose: 25.0 mg/kg/injection, schedule: Q01DX009 (ip), vehicle: other) was 6 of 6.

With `COCC(=O)c1ccc(Cl)cc1`, the survivor count under setting [10] is 4 of 6.

Turning to `O=C(NO)c1ccccc1`, the survivor count by setting is: under setting [3], 6 of 6; (dose: 200.0 mg/kg/injection, schedule: Q01DX001 (ip), vehicle: saline) 3 of 6; (dose: 400.0 mg/kg/injection, schedule: Q01DX001 (ip), vehicle: saline) 3 of 6.

For the compound `CC(C)N1C(=O)C=C(c2ccc([N+](=O)[O-])cc2)C1=O`, the survivor count is reported as 4 of 6 under setting [3] and 1 of 6 under setting [4].

Turning to `Nc1nc(N)c2cc(S(=O)(=O)c3cccc(C(F)(F)F)c3)ccc2n1`, the T/C (dose: 400.0 mg/kg/injection, schedule: Q01DX009 (ip), vehicle: saline with Tween-80) is 131 % of control.

For the compound `CN1CC(NC(=O)N(CCCl)N=O)CC2c3cccc4c3c(cn4N=O)CC21` (stereo not given), the T/C was 130 % of control (dose: 12.5 mg/kg/injection, schedule: Q01DX001 (ip), vehicle: Klucel (hydroxypropylcellulose) (HPC)); 135 and 137 % of control (dose: 25.0 mg/kg/injection, schedule: Q01DX001 (ip), vehicle: Klucel (hydroxypropylcellulose) (HPC)); 144 % of control (dose: 50.0 mg/kg/injection, schedule: Q01DX001 (ip), vehicle: Klucel (hydroxypropylcellulose) (HPC)).

Turning to `NC(N)=N/N=C/c1ccc(Cl)cc1Cl`, the survivor count under setting [12] is recorded as 3 of 6.

As to `O=C(NCc1ccco1)Nc1cccc2c(NC(=O)NCc3ccco3)cccc12`, the survivor count under setting [9] is listed as 6 of 6 and the survivor count (dose: 120.0 mg/kg/injection, schedule: Q01DX005 (ip), vehicle: saline with Tween-80) is reported as 6 of 6.
